Measured values from paper PMC11144275 (The Lancet. Infectious diseases, 2019).
Where a name gives a salt, the structure may show the parent alone.

Key:
[1] = tested on: EBOV-Ituri; type: cell-based, Ebola virus
[2] = tested on: EBOV-Makona; type: cell-based, Ebola virus
[3] = tested on: Huh-7 cells

CCCCc1oc2ccccc2c1C(=O)c1cc(I)c(OCCN(CC)CC)c(I)c1 [Amiodarone hydrochloride]
EBOV-Ituri Selectivity index [1]: 25 | EBOV-Makona Selectivity index [2]: 15 | CC50 [3]: 13·89 (1·91) μM
